Reference: patent US8927556B2, “1H-pyrrolo[3,4-D]pyrimidin-2(6H)-one compounds” (Intra-Cellular Therapies, Inc., priority 2008, dated 2015)
pIC50: −log10 of the molar value. Some entries share one result that the patent states for a list of compounds.

Molecular target: Phosphodiesterase 1B (PDE1B) (Bos taurus, UniProt Q01061)
Assay: PDE1B inhibition in vitro, IMAP phosphodiesterase assay
Assay type: biochemical
Details: IMAP fluorescence polarization, FL-GMP substrate, bovine brain phosphodiesterase with Ca2+/calmodulin

| Compound | pIC50 |
| --- | --- |
| COc1ccc(Cn2cc3c(c2Nc2ccccc2)c(=O)n(C)c(=O)n3CC(C)C)cc1 [Example 5, 1-Isobutyl-6-(4-methoxybenzyl)-3-methyl-5-(phenylamino)-1H-pyrrolo [3,4-d]pyrimidine-2,4(3H,6H)-dione] | > 6.70 |
| CC(C)Cn1c(=O)n(C)c(=O)c2c(Nc3ccccc3)n(Cc3ccc(-c4ccccn4)cc3)cc21 [Example 6, 6-((4-Pyridin-2yl)-benzyl)-1-isobutyl-3-methyl-5-(phenylamino)-1H-pyrrolo[3,4-d]pyrimidine-2,4(3H,6H)-dione] | > 6.70 |
